# Library screen at single concentrations

Amino acid sequences for entries named in this document (tags omitted).
UniProt P9WFT3, whole entry: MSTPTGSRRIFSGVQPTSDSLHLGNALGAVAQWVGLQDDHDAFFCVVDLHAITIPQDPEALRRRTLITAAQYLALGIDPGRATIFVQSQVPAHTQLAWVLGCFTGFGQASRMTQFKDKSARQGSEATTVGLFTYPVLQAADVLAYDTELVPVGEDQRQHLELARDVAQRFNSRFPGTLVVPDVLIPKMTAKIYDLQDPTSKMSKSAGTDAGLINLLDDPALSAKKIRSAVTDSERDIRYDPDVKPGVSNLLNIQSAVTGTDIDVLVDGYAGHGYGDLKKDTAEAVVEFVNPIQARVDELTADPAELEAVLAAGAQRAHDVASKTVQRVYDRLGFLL

MtTrpRS: 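Enzyme assay of tryptophanyl-tRNA synthetase; the read-out is not stated. Target: Tryptophan-tRNA ligase, Mycobacterium tuberculosis (UniProt P9WFT3). Compounds at 10 µM. Direction is not recorded; retested compounds ran higher, which suggests that high means inhibition. Of about 65,000 compounds tested this way, about 64 (0.098%) reached 50% or more in at least one test.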
Leishmania in macrophages: 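Cell assay of Leishmania donovani living inside macrophages; the read-out is not stated. Tested at 30 µM. The record gives no direction; compounds that gave an IC50 in retests scored well above the rest, so higher reads as stronger inhibition. Size under these conditions: about 69,000 compounds, about 1,000 of them at 50% or above in at least one test.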

Values are the deposited “Percent Effect”, in %. How 0% and 100% were set is not recorded. Most values in the screen are low, and negative values occur. This is an unselected part of the compounds tested. A dash means the value is not listed here; it may have been measured.

CN(Cc1ccc(Cl)cc1)S(=O)(=O)N(C)Cc1cnn(C)c1 read MtTrpRS: 0.486%; Leishmania in macrophages: -17.95%. With CCc1nnc(Nc2cccc(C3CCN(CC4CC4)CC3)n2)s1 the screen gave Leishmania in macrophages: 23.06%. With O=C(c1cc2cc(I)ccc2[nH]1)N1CCC(Nc2cccnn2)CC1 the screen gave MtTrpRS: 0.4237%; Leishmania in macrophages: -45.79%. For CC1c2ncc(CN3CCN(C)CC3)n2CCN1Cc1cnn(C)c1.O=C(O)C(F)(F)F.O=C(O)C(F)(F)F.O=C(O)C(F)(F)F (stereo not drawn) the result was Leishmania in macrophages: 4.389%. With Cn1ncc2cnn(CC(O)COCc3ccccc3Cl)c2c1=O (stereo not drawn) the screen gave MtTrpRS: 0.3112%; Leishmania in macrophages: 5.496%. O=C(O)C(F)(F)F.O=C(O)C(F)(F)F.[H][C@]12CCCC(N3CCN(c4ncccn4)CC3)[C@@]1([H])CN(C(C)=O)C2 (stereo partly drawn) gave Leishmania in macrophages: -12.32%. CC(C)n1[nH]c(=O)c2c1NC(=O)CC2c1cccnc1 (stereo not drawn) gave MtTrpRS: 1.086%; Leishmania in macrophages: -6.376%.

CCC(=O)N1CCCC(c2cc(Nc3ncccn3)nc(C)n2)C1 (stereo not drawn) gave MtTrpRS: -0.7525%; Leishmania in macrophages: 38.09%. Cc1nc(NCc2coc(-c3ccccc3)n2)cc(C2CCNCC2)n1 read MtTrpRS: 0.8909%; Leishmania in macrophages: -12.96%. Result for Cc1cc(Oc2ccccc2C)nc(C2CCCN2)n1 (stereo not drawn) was MtTrpRS: -8.104%; Leishmania in macrophages: -19.16%. With CCc1nccn1C1CCCN(C(=O)c2cc[nH]n2)C1 (stereo not drawn) the screen gave MtTrpRS: -2.638%; Leishmania in macrophages: -14.37%. COc1cc(CNC(C)Cn2cccn2)cc2c1OCO2 (stereo not drawn) read MtTrpRS: -0.3799%. With O=c1c(Cc2ccccc2)c(O)ccn1CCc1ccccc1 the screen gave MtTrpRS: -4.003%; Leishmania in macrophages: -2.976%. For Cc1ccc(CN2CC[C@@H](NS(C)(=O)=O)[C@@H]2Cc2ccncc2)o1 the result was MtTrpRS: 3.391%.

With O=C(C1CN(Cc2ccsc2)Cc2ccnn2C1)N1CCCC1 (stereo not drawn) the screen gave MtTrpRS: -0.9161%. Cn1cc(CC2CC(=O)N(Cc3ccc(OC(F)F)cc3)C2=O)cn1 (stereo not drawn) gave MtTrpRS: 0.7227%; Leishmania in macrophages: 13.37%. With O=C(O)C(F)(F)F.[H][C@@]12C[C@H](C(=O)NC)CN(CC3CCOCC3)[C@]1([H])CCO2 the screen gave Leishmania in macrophages: -2.874%. For COCCNC(=O)C1CN(Cc2cccc(C)n2)Cc2ccnn2C1.O=C(O)C(F)(F)F.O=C(O)C(F)(F)F (stereo not drawn) the result was Leishmania in macrophages: 5.923%. Cc1cc2cc(C(=O)N3CC[C@H](O)[C@]4(CCCO4)C3)ccc2o1 read MtTrpRS: 4.25%; Leishmania in macrophages: -0.6086%. COc1ccccc1OCCN1CCC(N2CCNC2=O)CC1 gave MtTrpRS: -2.43%; Leishmania in macrophages: -14.49%. Result for Cc1ccc2c(c1)SCC(=O)N2CC(=O)N1CCCC1c1cc(C)on1 (stereo not drawn) was MtTrpRS: 2.437%; Leishmania in macrophages: 8.106%.

O=C(O)C(F)(F)F.O=C(O)C(F)(F)F.[H][C@@]12CCN(C3CCOCC3)C[C@]1([H])[C@@H](CNC(=O)c1ccncc1)OC2 read Leishmania in macrophages: -19.38%. With NC(=O)c1cnn2c1NCC(CNCCCc1ccccc1)C2 (stereo not drawn) the screen gave MtTrpRS: -4.959%; Leishmania in macrophages: 16.22%. CCc1nc(C2CCCN2CC(=O)N2CCc3ccccc32)no1 (stereo not drawn) read MtTrpRS: -2.656%; Leishmania in macrophages: 30.67%. Result for CC(Cn1cccn1)NC(=O)C1=Cc2ccccc2OC1 (stereo not drawn) was MtTrpRS: -7.447%; Leishmania in macrophages: -9.674%. With [H][C@]12CC[C@]([H])(CN(Cc3cscn3)C1)N(C(=O)CNC(N)=O)C2 the screen gave Leishmania in macrophages: -10.34%. With COCC1CCN(CCCc2cn[nH]c2)CC1 the screen gave MtTrpRS: 10.22%; Leishmania in macrophages: -16.4%. Result for CCc1noc(C(C)N(C)CC(=O)Nc2ccccc2Cl)n1 (stereo not drawn) was MtTrpRS: 7.326%; Leishmania in macrophages: 29.45%.

For O=C(C(C1CC1)C1CC1)N1CCC(n2ccnn2)CC1 the result was MtTrpRS: 4.759%; Leishmania in macrophages: 12.14%. O=C(N1CCOCC1)[C@@]12CCO[C@@H]1CCN(C1CCCCC1)C2 read MtTrpRS: 1.245%. With O=C(O)C(F)(F)F.O=C(O)C(F)(F)F.c1cnc(N2CCOC3(CCCN(c4cnccn4)C3)C2)nc1 (stereo not drawn) the screen gave Leishmania in macrophages: 6.237%. CCN(CC)c1ncnc2c1CCN(C(=O)Cc1ccccn1)CC2.O=C(O)C(F)(F)F.O=C(O)C(F)(F)F read Leishmania in macrophages: 11.91%. COc1cc(N2C[C@H]3OCC[C@H]3[C@H](C(=O)N3CCCC3)C2)ncn1 read MtTrpRS: -1.802%. Result for CSc1ccc(C(=O)N2CC(=O)N(Cc3cccs3)CC(O)C2)cc1 (stereo not drawn) was Leishmania in macrophages: -2.029%. With O=C(c1ccc(Oc2cccnc2)cc1)N1CCN(CCO)CC1 the screen gave MtTrpRS: -1.163%; Leishmania in macrophages: 16.61%.

With CC(C)c1nc(NC(=O)CCCn2cccc2)n(C)n1 the screen gave MtTrpRS: -2.825%; Leishmania in macrophages: 12.33%. With FC1(F)CCN(Cc2ccccn2)CC12CCN(c1cnccn1)C2.O=C(O)C(F)(F)F.O=C(O)C(F)(F)F.O=C(O)C(F)(F)F (stereo not drawn) the screen gave Leishmania in macrophages: 40.41%. O=C(O)C(F)(F)F.[H][C@@]12CN(Cc3csc(C)n3)C[C@]1([H])CN(C(=O)c1cnccn1)C2 gave Leishmania in macrophages: 29.48%.

The first 4 entries again:

SMILES,MtTrpRS,Leishmania in macrophages
CN(Cc1ccc(Cl)cc1)S(=O)(=O)N(C)Cc1cnn(C)c1,0.486,-17.95
CCc1nnc(Nc2cccc(C3CCN(CC4CC4)CC3)n2)s1,-,23.06
O=C(c1cc2cc(I)ccc2[nH]1)N1CCC(Nc2cccnn2)CC1,0.4237,-45.79
CC1c2ncc(CN3CCN(C)CC3)n2CCN1Cc1cnn(C)c1.O=C(O)C(F)(F)F.O=C(O)C(F)(F)F.O=C(O)C(F)(F)F (stereo not drawn),-,4.389

Measurements from “University of Dundee, Small-Polar-MMV Screening Library” (2021), ChEMBL document CHEMBL3988442.